PubChem BioAssay AID1259354 (Paczesny and Yang Labs, IUPUI and University of Michigan, 2018)
In all, about 78,000 compounds went through this assay and about 1,800 (2.3%) were called active. This list was built around the results that the source calls inconclusive (neither active nor inactive); the mix of calls is not that of the screen. No stated cut-off is given here; in the data, active means inhibition above about 30%; inconclusive means mostly about 10% to 28%; inactive means weaker than that.

Sequences of proteins named here, by UniProt entry; tags and fusion partners are left off. A change or cut given only in a name is not applied to a line headed by its entry.
UniProt Q01638: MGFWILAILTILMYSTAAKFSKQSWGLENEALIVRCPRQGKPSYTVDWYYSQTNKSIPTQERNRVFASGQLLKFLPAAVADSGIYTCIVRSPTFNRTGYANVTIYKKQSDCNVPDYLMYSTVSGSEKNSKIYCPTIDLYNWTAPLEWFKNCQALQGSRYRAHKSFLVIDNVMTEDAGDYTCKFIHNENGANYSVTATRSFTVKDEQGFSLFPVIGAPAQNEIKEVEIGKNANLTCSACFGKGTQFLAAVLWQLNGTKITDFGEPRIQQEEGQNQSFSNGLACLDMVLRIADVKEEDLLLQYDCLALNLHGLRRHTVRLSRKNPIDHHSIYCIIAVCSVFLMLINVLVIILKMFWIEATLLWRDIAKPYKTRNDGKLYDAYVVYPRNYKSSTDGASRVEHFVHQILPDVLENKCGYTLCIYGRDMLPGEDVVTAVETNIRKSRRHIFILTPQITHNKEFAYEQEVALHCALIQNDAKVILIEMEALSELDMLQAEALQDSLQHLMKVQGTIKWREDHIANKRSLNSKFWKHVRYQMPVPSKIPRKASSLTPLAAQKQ

Biological target: Interleukin-1 receptor-like 1 (Homo sapiens) (UniProt Q01638)
Assay: blocks human ST2 binding to IL-33, primary screen, biochemical, AlphaLISA (AID 1259354)
Conditions: AlphaLISA ST2-Fc/biotin-IL-33 interaction, 1 h; at 17 µM, active compounds read high

Row | SMILES | inhibition
1 | O=C1c2cccc([N+](=O)[O-])c2C(=O)N1C1C(=O)N(c2ccc(Cl)cc2)C1c1ccc(F)cc1 (centres undefined) | active: 41%
2 | CC1CCCN(CC(O)COc2ccc(C3CCCCC3)cc2)C1 (centres undefined) | inactive
3 | CCC1=NOC(CNC(=O)CCc2scnc2C)C1 (centres undefined) | inconclusive: 12%
4 | CCC(C)Sc1nc2c(c(=O)n1-c1ccc(Br)cc1)SCC2 (centres undefined) | inconclusive: 25%
5 | CCCCN(C)S(=O)(=O)c1cccc2cccnc12 | inactive
6 | COCCNc1cc(-c2noc([C@@H]3CCCN3C3CCOCC3)n2)ccn1 | inconclusive: 10%
7 | C=C1c2cc(C)ccc2NC(=O)N1c1ccccc1 | inconclusive: 19%
8 | COc1ccc(Cn2c(CNC(=O)c3ccc(OC)c(OC)c3)nc3cccnc32)cc1 | inconclusive: 24%
9 | Cc1ccc(CNC2CC(=O)N(Cc3ccccc3C(F)(F)F)C2)o1 (centres undefined) | inactive
10 | CCCC12CN3CC(C)(CN(C1)C3c1ccccc1)C2=O (centres undefined) | inconclusive: 10%
11 | COc1ccc(CC(=O)N2N=C(c3ccc(Br)cc3)CC2(O)C(F)(F)F)cc1 (centres undefined) | inactive
12 | Cc1cc(C)cc(-n2nc3c(c2NC(=O)c2ccco2)CSC3)c1 | inactive
13 | Cc1ccc(Nc2nc(-c3ccc([N+](=O)[O-])cc3)cs2)cc1C | active: 33%
14 | CN(CC(=O)NC1CCCCCCC1)S(=O)(=O)c1ccc2c(c1)CCC(=O)N2 | inconclusive: 15%
15 | CCOc1ccc2c(C)nc(NC3=NC(C)(C)C=C(C)N3)nc2c1 | inconclusive: 20%
16 | COc1cccc(OCCOc2ccc3c(C)cc(=O)oc3c2)c1 | inconclusive: 15%
17 | COc1cccc2cc(C(=O)NC(C)=O)c(=Nc3ccc(C(F)(F)F)cc3)oc12 | inactive
18 | COc1ccccc1CN(Cc1cccc(C)c1)C(=O)c1ccc(=O)n(C)c1 | inactive
19 | COc1ccccc1-n1cc(C(=O)N2[C@@H]3CC[C@H]2CNC(=O)C3)cn1 | inactive
20 | Cc1cc(C2CCCN2C(=O)c2cc(-c3ccccc3)n[nH]2)on1 (centres undefined) | inconclusive: 15%
21 | COc1cc(C(=O)Nc2ccccc2Oc2ccccc2)cc(OC)c1OC | inactive
22 | CCN(CC)C(=O)C1CCCN(Cc2cc(Br)ccc2OC)C1 (centres undefined) | inconclusive: 10%
23 | CCS(=O)(=O)N1CCC(O)(c2ccc(C)cn2)CC1 | inconclusive: 18%
24 | Cc1ccc(Nc2cc(C)nc(Nc3ccc(NC(=O)c4ccc(C(C)(C)C)cc4)cc3)n2)cc1 | inactive

Part of the list above, as a markdown table:

| Row | SMILES | inhibition |
| --- | --- | --- |
| 3 | CCC1=NOC(CNC(=O)CCc2scnc2C)C1 (centres undefined) | inconclusive: 12% |
| 5 | CCCCN(C)S(=O)(=O)c1cccc2cccnc12 | inactive |
| 8 | COc1ccc(Cn2c(CNC(=O)c3ccc(OC)c(OC)c3)nc3cccnc32)cc1 | inconclusive: 24% |
| 12 | Cc1cc(C)cc(-n2nc3c(c2NC(=O)c2ccco2)CSC3)c1 | inactive |
| 18 | COc1ccccc1CN(Cc1cccc(C)c1)C(=O)c1ccc(=O)n(C)c1 | inactive |

(next part)

Row | SMILES | inhibition
25 | CC(C)Cc1cc(C(=O)N2CCCC2c2cc(C(C)C)on2)n(C)n1 (centres undefined) | inconclusive: 24%
26 | CC(=O)N(C)CC1=CCCN(Cc2ccc(S(C)(=O)=O)cc2)C1 | inconclusive: 10%
27 | COc1cc2c(cc1OC)C(C(=O)Nc1ccc(F)cc1)C(c1cccs1)N(C)C2=O (centres undefined) | inconclusive: 11%
28 | O=C(c1ccccc1)N1C[C@@H]2C[C@H](C1)c1ccc(-c3ccc(OC(F)(F)F)cc3)c(=O)n1C2 | inconclusive: 11%
29 | Nc1nc(N2CCOCC2)cc(N2C[C@H](O)[C@@H](N3CCCCC3)C2)n1 | inconclusive: 16%
30 | c1cc(-c2ccc(CN3CC[C@H]4CC[C@@H](C3)N4)s2)[nH]n1 | inconclusive: 17%
31 | O=C(NCc1cnc2c(c1)CCC2)C1CC(=O)N(Cc2ccccn2)C1 (centres undefined) | inactive
32 | COC(=O)[C@@H]1Cc2ncn(C)c2CN1S(=O)(=O)c1cccs1 | inconclusive: 27%
33 | Cc1ccccc1CSc1nc(-c2ccco2)nc2c1c(=O)n(C)c(=O)n2C | inconclusive: 18%
34 | CNC(=O)C1CCC(Cn2c(=O)c3sccc3n(CC(=O)Nc3cc(C)ccc3C)c2=O)CC1 (centres undefined) | inconclusive: 12%
35 | CNc1nc2c(C)cccn2c(=O)c1C=Nc1ccc(C)cc1 | inconclusive: 28%
36 | COC(=O)c1cc2n(n1)CCCN(C(=O)c1cc3c([nH]c1=O)CCCC3)C2 | inconclusive: 26%
37 | CC1CCC2(C)C(CC(O)C(O)C23CO3)C1(C)CCC1=CC(=O)OC1O (centres undefined) | inconclusive: 11%
38 | Cc1ccc(NC(=O)C2(S(=O)(=O)c3ccc(Cl)cc3)CC2)cc1F | inconclusive: 17%
39 | CN(C)CC1(O)CCCN(C(=O)c2ccc(-n3cccc3)cc2)CC1 (centres undefined) | inconclusive: 11%
40 | O=C(CC1COCCN1)N1CCC2(CCc3ccccc32)CC1 (centres undefined) | inconclusive: 19%
41 | CC(NC(=O)c1cnn2c1CCCC2)c1nc(-c2cccnc2)no1 (centres undefined) | inactive
42 | CCOc1ccc2nc(N3CCN(c4ccccc4)CC3)sc2c1 | inactive
43 | Cc1nc2cccnc2n1C1CCN(C(=O)Nc2ccccc2C(F)(F)F)CC1 | inconclusive: 29%
44 | COc1ccc(C(=O)N2CC[C@@H](CC(=O)O)[C@@H](CCN3CCCN(C(C)=O)CC3)C2)cc1 | active: 39%
45 | N#CC(=C1Nc2ccccc2N1)c1nc(C#N)c(C#N)nc1N1CCN(c2ccccc2)CC1 | inconclusive: 10%
46 | O=C(NCc1ccc2c(c1)CCCO2)c1cccc2ccnn12 | inconclusive: 10%
47 | Cc1ccccc1OCCNS(=O)(=O)c1cccc([N+](=O)[O-])c1 | inactive
48 | CC(=O)c1cccc(N2COc3ccc4cc(Br)ccc4c3C2)c1 | inconclusive: 11%

Among those listed so far, two have two or more sulfur atoms:
Row | SMILES | inhibition
4 | CCC(C)Sc1nc2c(c(=O)n1-c1ccc(Br)cc1)SCC2 (centres undefined) | inconclusive: 25%
32 | COC(=O)[C@@H]1Cc2ncn(C)c2CN1S(=O)(=O)c1cccs1 | inconclusive: 27%

The listing continues:

Row | SMILES | inhibition
49 | Cc1[nH]c2ccc(CNC(=O)C(C)c3n[nH]c(=O)c4ccccc34)cc2c1C (centres undefined) | inconclusive: 18%
50 | Cc1ccc(C2CC(=O)C3=C(C2)Nc2ccccc2NC3c2ccc(C)s2)cc1 (centres undefined) | inconclusive: 12%
51 | CC1CCN(C(=O)COc2ccc3c(c2)C(=O)CC(C)(C)O3)CC1 | inactive
52 | Cc1ccc(CNS(=O)(=O)c2ccc(Br)s2)cc1 | inactive
53 | O=C(O)C[C@@H]1CCN(C(=O)C2CCC2)C[C@@H]1CCN1CCN(c2ccc(F)cc2)CC1 | inconclusive: 24%
54 | Cc1cc(C(=O)N2CCCC(CCc3ccccc3C)C2)ccc1O (centres undefined) | inconclusive: 23%
55 | C=C(C)COc1cccc(C(=O)NC(C)c2nncn2C)c1 (centres undefined) | inconclusive: 17%
56 | CCOc1ccc2cc(C(N)=O)c(=Nc3cccc(C)c3)oc2c1 | inconclusive: 26%
57 | CN(CCc1cnn(C)c1)C(=O)c1cc(COc2ccc3c(c2)OCO3)[nH]n1 | inactive
58 | CC(=O)c1c(C)oc2ccc(N(C(C)=O)S(=O)(=O)c3ccc(C)cc3)cc12 | inactive
59 | Cc1ccc(CNC(=O)c2cc(-c3ccc(Br)s3)nc3ccccc23)o1 | inconclusive: 14%
60 | COC(=O)C1=C(C)OC(N)=C(C#N)C1c1cc(Br)c(O)c(Br)c1 (centres undefined) | inconclusive: 14%
61 | Cc1c(Cl)cccc1NC(=O)C1CCCCC1C(=O)O (centres undefined) | inactive
62 | O=C(c1cnc(CN2CCCC2)s1)N1CC(c2cccnc2)C1 | inconclusive: 12%
63 | COC(=O)c1cc(O)cc(O)c1C(=O)c1c(O)c(Cl)c(C)c(Cl)c1OC | inconclusive: 19%
64 | Cc1cccc(OCC(=O)Nc2ccc(F)cc2)c1C | inactive
65 | O=C(CSc1nc2c(c(=O)n1-c1ccc(F)cc1)SCC2)Nc1cccc(Cl)c1 | inactive
66 | O=C1CC(c2cccs2)CC2=C1C(c1coc3ccc(Cl)cc3c1=O)Nc1ccccc1N2 (centres undefined) | inconclusive: 14%
67 | COc1cc(C)c(-n2cnc3ccccc32)cc1C | inconclusive: 11%
68 | CN(C)CC1(O)CCCN(C(=O)c2ccc(-c3cccc(F)c3)cc2)CC1 (centres undefined) | inactive
69 | Cc1nn(CCNS(=O)(=O)NCc2ccccc2)c(C)c1Cl | inactive
70 | COc1ccc(Cl)cc1S(=O)(=O)N1CCCC(C)C1 (centres undefined) | inactive
71 | O=C(Cn1cnc2c(oc3ccccc32)c1=O)N1CCC(Cc2ccccc2)CC1 | inactive
72 | O=C(NCCN1CCCCCC1)C1CCN(c2ccc(-c3cccs3)nn2)CC1 | inactive

Row | SMILES | inhibition
73 | O=C(CCCn1c(=O)[nH]c2ccsc2c1=O)NCCc1ccccc1 | inconclusive: 11%
74 | O=C(COc1ccc([N+](=O)[O-])cc1)Nc1ccc(F)cc1F | inactive
75 | CCCc1cnc(C)nc1NCC(=O)NC(C)(C)C | inactive
76 | Cc1cc2nc(COc3ccc(Cl)cc3NC(=O)c3ccco3)cc(=O)n2o1 | inactive
77 | O=S(=O)(c1ccc(O)cc1)c1ccc(-c2ccccc2)cc1 | inactive
78 | COc1ccc(OCC(=O)N2CCCC(Nc3ccc(C)c(C)c3)C2)cc1 (centres undefined) | inconclusive: 18%
79 | CC(C)C1N=C2c3ccccc3N=C(SCC(=O)c3ccc(F)cc3)N2C1=O (centres undefined) | inconclusive: 16%
80 | Cn1c(=O)c2c(nc3n(CC(O)c4ccccc4)c(C45CC6CC(CC(C6)C4)C5)cn23)n(C)c1=O (centres undefined) | inactive
81 | CCOc1ccc(S(=O)(=O)N=C2C=C(Nc3ccc(C)cc3)C(=O)c3ccccc32)cc1 | active: 91%
82 | C=CC1(C)CC2=CCC3C(C)(C(=O)O)CCCC3(C)C2CC1OC(C)=O (centres undefined) | inconclusive: 15%
83 | COc1ccc(OC)c(C2NC(c3cc(OC)ccc3OC)C(C)C(C)(O)C2C)c1 (centres undefined) | inactive
84 | Cn1c(=O)c2[nH]c(-c3ccccc3)nc2n(C)c1=O | inconclusive: 13%
85 | FC(F)(F)C1CN(c2cnc3ccccc3n2)CCO1 (centres undefined) | inconclusive: 27%
86 | NS(=O)(=O)c1cc2c(cc1Cl)NC=NS2(=O)=O | inconclusive: 14%
87 | Cn1c(=O)[nH]c(=O)c2c1nc(Br)n2Cc1cccc(Br)c1 | inconclusive: 18%
88 | N=C(c1nsnc1N)N(O)C(=O)c1ccc2nsnc2c1 | inconclusive: 16%
89 | CC1CC(C)CN(S(=O)(=O)c2ccc(C(=O)Nc3nc(-c4ccncc4)cs3)cc2)C1 (centres undefined) | inconclusive: 12%
90 | CCNC(=O)c1ccccc1-c1ccccc1C(=O)O | inconclusive: 16%
91 | CCn1nc(C(C)C)cc1C(=O)N1CC[C@@H](c2sccc2C)[C@H](O)C1 | inconclusive: 12%
92 | Cc1ccc(C(=O)N2CCCN(CC3CC3)C(C(C)C)C2)c(F)c1F (centres undefined) | inconclusive: 11%
93 | Cc1nn(CCC#N)c(C)c1[C@@H]1C=C[C@@H](NC(=O)NC(C)C)C1 | inconclusive: 11%
94 | O=C(NCCSc1c[nH]c2ccccc12)c1ccc(S(=O)(=O)N2CCCC2)cc1 | inconclusive: 11%
